# Measured values reported in patent US20150292023A1, “Materials and Methods Related to NSAID Chemoprevention in Colorectal Cancer” (priority 2011, published 2015).
# Some of these results come from one statement about several compounds together.
# System: Msh2^flox/floxVpC^+/+ (LS/HNPCC) mice
# Assay: Kaplan-Meier survival of LS/HNPCC mice treated with NSAIDs in diet
# Format: in vivo, mouse
# Details: representative survival data, vs untreated LS/HNPCC mice
# Description: Cohorts of equivalent gender Msh2^flox/floxVpC^+/+ mice were treated with NSAIDs including ASA that were mixed with powdered diet and administered ad libitum. VpC^+/+ (Msh2^++) mice were similarly examined to control for potentially confounding effects of continuous Cre expression in the intestine. Kaplan-Meier survival analyses were generated for each NSAID treatment (FIG. 2).
# A mouse model where exon 12 of Msh2 is flanked by LoxP recombination sites (Msh2^flox/flox) was generated. […] When considering the utility of this mouse model it is important to note that while modern day LS/HNPCC largely occurs in the colon, it was originally described as a gastric cancer.
# The endpoint for the chemopreventive analysis of NSAIDs on mouse tumorigenesis is survival. Assessment of tumor kinetics, treatment regimes and pathological changes during tumor development constitute a correlative quantitative database.
row,Compound,increase in life span (FIG. 2 grouping)
1,"CC(=O)Oc1ccccc1C(=O)O [ASA, Acetylsalicylic acid]",20-50%
2,"CC1=C(CC(=O)O)c2cc(F)ccc2/C1=C\c1ccc([S+](C)[O-])cc1 (centres unmarked) [Sulindac, sulindac]",20-50%
